Reference: paper PMC8541685
These are yes or no findings as the source states them, for the method shown. In cells and extracts the contact can be indirect. Binding calls can cover weak binding; strength is not graded here.

Amino acid sequences for entries named in this document (tags omitted). A change or cut given only in a name is not applied to a line headed by its entry.
UniProt P67775: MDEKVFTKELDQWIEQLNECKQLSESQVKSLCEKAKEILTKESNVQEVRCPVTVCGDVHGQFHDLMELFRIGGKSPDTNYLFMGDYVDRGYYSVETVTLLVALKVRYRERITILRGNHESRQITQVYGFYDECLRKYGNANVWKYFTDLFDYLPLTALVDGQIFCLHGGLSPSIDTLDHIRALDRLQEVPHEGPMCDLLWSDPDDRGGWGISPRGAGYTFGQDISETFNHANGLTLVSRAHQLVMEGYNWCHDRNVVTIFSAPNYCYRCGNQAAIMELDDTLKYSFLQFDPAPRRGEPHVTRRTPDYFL
UniProt Q01105: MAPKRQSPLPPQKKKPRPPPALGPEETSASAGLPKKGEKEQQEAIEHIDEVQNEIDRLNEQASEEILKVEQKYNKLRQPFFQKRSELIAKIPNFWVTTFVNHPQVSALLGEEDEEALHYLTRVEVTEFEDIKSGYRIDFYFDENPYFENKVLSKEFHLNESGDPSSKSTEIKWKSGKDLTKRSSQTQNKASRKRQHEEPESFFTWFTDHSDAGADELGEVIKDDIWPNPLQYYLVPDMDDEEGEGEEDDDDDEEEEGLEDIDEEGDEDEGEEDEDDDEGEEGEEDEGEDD

Target: serine/threonine phosphatase PP2A (human (endogenous in MDA-MB231)) (UniProt P67775)
Assay: co-IP; MDA-MB231 lysate (500 ug; 50 mM Tris pH 8, 1% NP40, 137 mM NaCl) immunoprecipitated with anti-PP2A antibody overnight at 4 C, protein A/G Sepharose, washed with TBST; blot for SET

oncoprotein SET (from UniProt Q01105 1-290)
binding: binds
